In assay [1] the target is rat sRAGE (rat) (UniProt Q63495). Kind of assay: ELISA, O.D. 450 nm, one bar per species; plate format and antibody concentration not given.
For assay [2], the target named is mouse sRAGE (mouse) (UniProt Q62151). The description is as above.
The target in assay [3] is sRAGE (V-C1-C2) lot LP08062 (human) (UniProt Q15109). The assay is described as above.
A further assay concerns the target RAGE C2 domain (UniProt Q15109). Kind of assay: domain mapping, Table 1.
The target in assay [4] is rat sRAGE (rat) (UniProt Q63495). Kind of assay: Human/Cyno/rat cross reactivity, Table 1.
Another assay addresses RAGE-Fc (human) (UniProt Q15109). Kind of assay: competition ELISA: RAGE-Fc with serially diluted mAb on coated S100A6, bound RAGE-Fc detected by anti-IgG Fc peroxidase; y axis % inhibition.
Assay [5] addresses rat sRAGE (rat) (UniProt Q63495). Kind of assay: Human/Cyno/rat/mouse cross reactivity, Table 1.
The target of assay [6] is mouse sRAGE (mouse) (UniProt Q62151). Kind of assay: Human/Cyno/rat/mouse cross reactivity, Table 1.
The target in another assay is RAGE V-C1 domains (UniProt Q15109). Kind of assay: domain mapping, Table 1.
The next assay addresses RAGE V domain (UniProt Q15109). Kind of assay: domain mapping, Table 1.

The chains behind the UniProt entries cited, without tags or fusion partners. Where a name states a change or a piece, a line headed by the entry shows the natural chain unless it says otherwise. Residues count along the entry.
UniProt Q63495, residues 23-341: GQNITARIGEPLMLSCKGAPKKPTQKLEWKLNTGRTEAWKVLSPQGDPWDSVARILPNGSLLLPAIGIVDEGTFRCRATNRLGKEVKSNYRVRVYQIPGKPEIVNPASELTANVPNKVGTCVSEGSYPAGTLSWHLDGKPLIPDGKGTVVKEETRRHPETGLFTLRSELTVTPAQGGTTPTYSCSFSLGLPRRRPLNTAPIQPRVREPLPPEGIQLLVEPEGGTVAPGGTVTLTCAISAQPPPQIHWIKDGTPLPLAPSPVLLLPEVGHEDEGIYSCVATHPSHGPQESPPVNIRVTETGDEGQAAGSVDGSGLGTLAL
UniProt Q62151, residues 23-340: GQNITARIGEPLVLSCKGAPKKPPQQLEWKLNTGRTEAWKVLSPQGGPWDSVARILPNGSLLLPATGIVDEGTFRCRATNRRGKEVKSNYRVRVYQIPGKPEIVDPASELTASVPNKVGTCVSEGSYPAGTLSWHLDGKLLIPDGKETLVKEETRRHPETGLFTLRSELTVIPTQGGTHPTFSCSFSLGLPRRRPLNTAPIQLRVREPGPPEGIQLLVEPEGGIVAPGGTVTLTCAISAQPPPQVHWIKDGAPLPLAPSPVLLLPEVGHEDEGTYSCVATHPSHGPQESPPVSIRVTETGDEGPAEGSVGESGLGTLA
UniProt Q15109: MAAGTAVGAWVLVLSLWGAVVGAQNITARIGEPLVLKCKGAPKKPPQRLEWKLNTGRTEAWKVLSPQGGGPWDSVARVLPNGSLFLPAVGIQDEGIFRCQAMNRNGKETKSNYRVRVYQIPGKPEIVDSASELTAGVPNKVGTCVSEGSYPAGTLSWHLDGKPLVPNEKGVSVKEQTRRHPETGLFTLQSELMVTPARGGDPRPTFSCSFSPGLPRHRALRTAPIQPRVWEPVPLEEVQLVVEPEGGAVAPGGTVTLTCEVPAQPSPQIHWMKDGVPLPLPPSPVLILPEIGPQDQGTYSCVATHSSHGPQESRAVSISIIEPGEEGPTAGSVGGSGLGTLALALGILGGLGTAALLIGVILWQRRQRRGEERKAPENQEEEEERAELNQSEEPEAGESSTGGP
RAGE-Fc: residues 23-344 of Q15109
sRAGE (V-C1-C2) lot LP08062: residues 23-331 of Q15109
RAGE V-C1 domains: residues 23-233 of Q15109
RAGE V domain: residues 23-121 of Q15109
RAGE C2 domain: residues 235-327 of Q15109

Results are given in words; binding and its absence hold for the method and conditions named. Some results given as binding are weak or reduced against the parent protein; the word gives no strength.

B1: 184 RAGE-1 (antibody, V domains shown)
VH: QVQLQQSGAELVRPGTSVKVSCKASGYAFTNYLIEWVKQRPGQGLEWIGMINPGSGGTNYNEKFKGKATLTADKSSSTAYMQLSSLTSDDSAVYFCARGRGGHYRYFDVWGAGTTVTVSS
VL: DIVLTQSPASLAVSLGQRATISCRASKSVSTSGYSYMHWYQQKPGQPPKLLIYLASHLESGVPARFSGSGSGTDFSLNIHPVEEEDAATYYCQHSRELPWTFGGGTKLEIK
B1: the binding entry with rat sRAGE (rat) [1] and with mouse sRAGE (mouse) [2] was “binds” each time.

B2: 210 RAGE-1 (antibody, V domains shown)
VH: EIQLQQTGPELVKPGASVKISCKASGYSFTDYIMVWVKQSHGKSLEWIGTINPYYGSTSYNLKFKGKATLTVDKSSSTANMQLNSLTSEDSAVYYCARLRLYAMDYWGQGTSVTVSS
VL: QAVVTQESALTTSPGETVTLTCRSSTGAVTTSNYANWVQEKPDHLFTGLIGGTNNRAPGVPARFSGSLIGDKAALTITGAQTEDEAIYFCALWYSNHFWVFGGGTKLTVL
B2: the binding result (in the assay with rat sRAGE (rat) [1]; with mouse sRAGE (mouse) [2]; in assay [3]) was “binds” in each case.

B3: 259 RAGE-1 (antibody, V domains shown)
VH: QVQLQQSGAELVRPGTSVKVSCKASGYAFTNYLIDWVNQRPGQGLEWIGVINPGSGGTNYNEKFTGKATLTADKSSSTAYMQLSSLTSDDSAVYFCARRRVDTMDYWGQGTSVTVSS
VL: QAVVTQESALTTSPGETVTLTCRSSTGAVTTSNYANWVQEKPDHLFTGLIGGTNNRAPGVPARFSGSLIGDKAALTITGAQTEDEAIYFCALWYSNHWVFGGGTKLTVL
For B3, the binding result with rat sRAGE (rat) [1] and with mouse sRAGE (mouse) [2] was “binds” throughout.

B4: 95 RAGE-1 (antibody, V domains shown)
VH: QVQLQQPGAELVKPGASVKLSCKASGYTFTSYWMHWVKQRPGQGLEWIGESNPSNGRTNYNEKFKNKATLTVDKSSSTAYMQLSSLTSEDSAVYYCARAPYYGFDYWGQGTTLTVSS
VL: QAVVTQESALTTSPGETVTLTCRSSTGAVTTSNYANWVQEKPDHLFTGLTGGTNNRAPGVPARFSGSLIGDKAALTITGAQTEDEAIYFCALWYSNHWVFGGGTKLTVL
Regarding B4, the binding result in the assay with rat sRAGE (rat) [1] is “binds”.

B5: 529 RAGE-1 (antibody, V domains shown)
VH: EIQLQQTGPELVKPGASVKISCKASGYSFTDYIMLWVKQSHGKSLEWIGNINPYYGSTFYNLKFKGKATLTVDKSSSTAYMQLNSLTSEDSAVYYCARSDYWYFDVWGAGTTVTVSS
VL: QAVVTQESALTTSPGETVTLTCRSSTGAVTTSNYANWVQEKPDHLFTGLIGGTNNRSPGVPARFSGSLIGDKAALTITGAQTEDEAIYFCALWYSNHLVFGGGTKLTVL
On to B5, for which the binding entry (with rat sRAGE (rat) [1]; with mouse sRAGE (mouse) [2]; in [3]) was “binds” in each case.

B6: 501-4 RAGE-1 (antibody, V domains shown)
VH: EVMLVDSGGGLVKPGGSLKLSCAASGFTFRSYAMSWVRQTPEKRLEWVATISSGGSYTYYPDSVRGRFTTSRDNGKNTLYLQMSSLRSEDTAMYYCARHGGNYSAWFTYWGQGTLVTVSA
VL: QAVVTQESALTTSPGETVTLTCRSSTGAVTTSNYANWVQEKPDHLFTGLIGGTNNRAPDVPARFSGSLIGDKAALTITGAQTEDEAIYFCALWYSNHWVFGGGTKLTVL
Regarding B6, the binding result in the assay with rat sRAGE (rat) [1] and with mouse sRAGE (mouse) [2] was “binds” throughout.

B7: 283 RAGE-1 (antibody, V domains shown)
VH: QVQLQQSGAELVRPGTSVKVSCKASGYAFTNYLIEWVKQRPGQGLEWIGVINPGSGGTNYSERFKGKATLTADKSSSTAYMQLSSLTSDDSAVYFCASYRYDGGMDYWGQGTSVTVSS
VL: QAVVTQESALTTSPGETVTLTCRSSTGAVTTSNYANWVQEKPDHLFTGLIRGTNNRAPGVPARFSGSLIGDKAALTITGAQTEDEAIYFCALWYSNHWVFGGGTKLTVL
Take B7: the binding entry in the assay with rat sRAGE (rat) [1] and with mouse sRAGE (mouse) [2] was “binds” each time.

B8: 140 RAGE-1 (antibody, V domains shown)
VH: QVQLQQPGAELVKPGASVRLSCKASGYTFTSYWMHWVKQRPGQGLEWIGEINPSNGRTNYNEKFKSKATLTVDKSSSTAYMQLSSLTSEDSAVYYCARDGLGYRPIAMDYWGQGTSVTVSS
VL: QIVLTQSPAIMSASPGEKVTISCSASSSVSYMYWYQQKPGSSPKPWIYRTSNLASGVPARFSGSGSGTSYSLTISSMEAEDAATYYCQQYHSYPPMYTFGGGTKLEIK
Take B8: the binding entry with mouse sRAGE (mouse) [2] is on record as “binds”.

B9: 56 RAGE-1 (antibody, V domains shown)
VH: QVQLQQSGPELVKPGASVRISCKASGYTFTSYFIHWVKQRPGQGLEWIGWIYPGNVNTKYNEKFKDKATLTADKSSSTAYMQLSNLTSEDSAVYFCVRGQLGDYWGQGITLTVSS
VL: DIVMTQSQKFMSTSVGDRVSVTCKASQNVGINVAWYQQKPGQSPKALIYSASYRYSGVPDRFTGSGSGTDFTLIISNVQSEDLAEYFCQQYNNYPRTFGGGTKLEIK
For B9, the binding entry with RAGE C2 domain, with rat sRAGE (rat) [4], in the assay with RAGE-Fc (human), in the assay with rat sRAGE (rat) [5], with mouse sRAGE (mouse) [6] and in the assay with rat sRAGE (rat) [1] was “binds” each time. Besides, the binding entry with mouse sRAGE (mouse) [2] is on record as “binds”.

B10: 173 RAGE-1 (antibody, V domains shown)
VH: EVKLEESGGGLVQPGGSMKLSCVASGFTFSNYWMNWVRQSPEKGLEWVAEIRLKSNNYATHYAESVKGRFTISRDDSKSSVYLQMNDLRAEDPGIYYCIRDYGNYAMDHWGQGTSVTVSS
VL: DIVMTQSQKFMSTSVGDRVSVTCKASQNVGTNVAWYQQKPGQSPKALIYSASYRYSGVPDRFTGSGSGTDFTLTISNVQSEDLAEYFCQQYNSYPLTFGAGTKLELK
Consider B10, for which the binding result in the assay with RAGE V-C1 domains and with RAGE V domain was “binds” each time.

B11: 183 RAGE-1 (antibody, V domains shown)
VH: EVQLQQSGTVLARPGASVKMSCKASGYSFTSYWMHWVKQRPGQGLEWIGAIFPGNSDTTYNQKFKGKAKLTAVTSASTAYMELSSLTNEDSAVYYCTGLRRGFPYWGQGTLVTVSV
VL: NIVMTQSPKSMSMSVGERVTLSCKASENVGTYVSWYQQKPEQSPKLLIYGASNRYTGVPDRFTGSGSATDFTLTISSVQAEDLADYHCGQSYSYPYTFGGGTKLEIK
B11: the binding entry in the assay with rat sRAGE (rat) [1] and with mouse sRAGE (mouse) [2] was “binds” each time.

B12: 253 RAGE-1 (antibody, V domains shown)
VH: QVQLQQSGPELVKPGASVRISCKASGYTFTDYYIHWVKQRPGQGLEWIGWIYPGNVITKYNEKFKGKATLTADKSSSTAYMQLSSLTSEDSAVYFCARYDYDYAMDYWGQGTSVTVSS
VL: DIVMSQSPSSLAVSVGEKVTMSCKSSQTLLYSSNQKNYLAWYQQKPGQSLKLLIYWASTRESGVPDRFAGSGSGTDFTLTISSVKAEDLAVYYCQQYFGYPYTFGGGTKLEIK
Take B12: in the assay with RAGE V-C1 domains, the binding result was “binds”.

B13: 326 RAGE-1 (antibody, V domains shown)
VH: EVKLVESGGGLVKPGGSLKLSCAASGFAFSSYDMSWVRQTPEKRLEWVATISSGGSYTSYPDSVQGRFTISRDNARNTLYLQMSSLRSEDTALYYCASSQLPPYAMDYWGQGTSVTVSS
VL: DIVMTQSQKFMSTSVGDRVSITCKASQNVGTAVAWYQQKPGQSPKLLIYSASNRYTGVPDRFTGSGSGTDFTLTISNMQSEDLADYFCQQYSSYPLLTFGAGTKLELK
Take B13: the binding result in the assay with RAGE V-C1 domains is reported as “binds”.

B14: 158 RAGE-1 (antibody, V domains shown)
VH: QIQLVQSGPELKKPGETVKISCKASGYTFTDYSMHWVKQAPGKGLKWMGWINTETGEPTYADDFKGRFAFSLETSASTAYLLINNLKTEDTATYFCARDYLYYYAMDYWGQGTSVTVSS
VL: DVVLTQTPLSLPVNIGDQASISCKSTKSLLNSDGFTYLDWYLQKPGQSPQLLIYLVSNRFSGVPDRFSGSGSGTDFTLKISRVEAEDLGVYYCFQSNYLPLTFGGGTKVEIK
For B14, the binding entry (with RAGE V-C1 domains; with RAGE V domain; in the assay with RAGE-Fc (human); in assay [3]) was “binds” in each case.

B15: 240 RAGE-1 (antibody, V domains shown)
VH: QIQLVQSGPELKKPGETVKISCKASGYTFTDYSMHWVKQAPGKGLKWMGWINTETGEPTYADDFKGRFAFSLETSASTAYLQINNLKNEDTATYFCARDYLYYYAMDYWGQGTSVTVSS
VL: DVVLTQTPLSLPVSIGDQASISCKSTKSLLNSDGFTYLDWYLQKPGQSPQLLIYLVSNRFSGVPDSFSGSGSGTDFTLKISRVEAEDLGVYYCFQSNYFPLTFGGGTTLEIK
For the molecule B15, the binding entry (with RAGE V-C1 domains; in the assay with RAGE V domain; with RAGE-Fc (human); in assay [3]) was “binds” each time.

B16: 152 RAGE-1 (antibody, V domains shown)
VH: DVQLQESGPDLVKPSQSLSLTCTVTGYSITSGYSWHWIRQFPGNKLEWMGYIHYSGSTNYNPSLKSRISITRDTSKNQFFLQLNSVTTEDTATYYCARGGDFAYWGQGTLVTVSA
VL: DIVLTQSPASLAVSLGQRATISCRASKSVGTSDSSYMHWYQQKPGQPPKLLIYLASNLESGVPARFSGSGSGTDFTLNIHPVEEEDAATYYCQHSRELYTFGGGTKLEIK
For the molecule B16, the binding entry with RAGE V-C1 domains, with RAGE V domain, in the assay with rat sRAGE (rat) [1] and with mouse sRAGE (mouse) [2] was “binds” in each case.

The record behind these values is US20120282637A1.
